The values below come from PMC8438336.

Chains of the proteins cited; added tags and fusions are not shown. Residues count along the entry.
UniProt P06536: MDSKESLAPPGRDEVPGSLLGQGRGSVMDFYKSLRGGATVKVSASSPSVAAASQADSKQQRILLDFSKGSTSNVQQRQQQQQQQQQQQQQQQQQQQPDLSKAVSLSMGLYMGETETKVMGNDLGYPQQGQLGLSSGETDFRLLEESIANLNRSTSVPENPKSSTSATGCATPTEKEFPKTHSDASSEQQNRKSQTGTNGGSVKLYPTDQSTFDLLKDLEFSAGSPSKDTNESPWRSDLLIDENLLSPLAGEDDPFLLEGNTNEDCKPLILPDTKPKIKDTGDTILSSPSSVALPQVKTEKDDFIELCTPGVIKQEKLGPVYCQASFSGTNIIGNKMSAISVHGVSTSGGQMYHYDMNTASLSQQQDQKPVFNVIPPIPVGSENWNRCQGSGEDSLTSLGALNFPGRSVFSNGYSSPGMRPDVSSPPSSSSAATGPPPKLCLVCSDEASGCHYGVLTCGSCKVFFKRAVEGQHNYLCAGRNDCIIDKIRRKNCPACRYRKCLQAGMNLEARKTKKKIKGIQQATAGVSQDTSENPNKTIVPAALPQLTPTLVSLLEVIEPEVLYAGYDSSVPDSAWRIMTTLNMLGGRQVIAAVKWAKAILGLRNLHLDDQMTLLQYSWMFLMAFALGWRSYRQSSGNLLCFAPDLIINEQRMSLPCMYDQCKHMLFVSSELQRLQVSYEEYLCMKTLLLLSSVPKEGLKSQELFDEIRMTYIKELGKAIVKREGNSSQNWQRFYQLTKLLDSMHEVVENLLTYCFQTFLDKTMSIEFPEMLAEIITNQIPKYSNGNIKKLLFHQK
UniProt P19490, residues 19-907: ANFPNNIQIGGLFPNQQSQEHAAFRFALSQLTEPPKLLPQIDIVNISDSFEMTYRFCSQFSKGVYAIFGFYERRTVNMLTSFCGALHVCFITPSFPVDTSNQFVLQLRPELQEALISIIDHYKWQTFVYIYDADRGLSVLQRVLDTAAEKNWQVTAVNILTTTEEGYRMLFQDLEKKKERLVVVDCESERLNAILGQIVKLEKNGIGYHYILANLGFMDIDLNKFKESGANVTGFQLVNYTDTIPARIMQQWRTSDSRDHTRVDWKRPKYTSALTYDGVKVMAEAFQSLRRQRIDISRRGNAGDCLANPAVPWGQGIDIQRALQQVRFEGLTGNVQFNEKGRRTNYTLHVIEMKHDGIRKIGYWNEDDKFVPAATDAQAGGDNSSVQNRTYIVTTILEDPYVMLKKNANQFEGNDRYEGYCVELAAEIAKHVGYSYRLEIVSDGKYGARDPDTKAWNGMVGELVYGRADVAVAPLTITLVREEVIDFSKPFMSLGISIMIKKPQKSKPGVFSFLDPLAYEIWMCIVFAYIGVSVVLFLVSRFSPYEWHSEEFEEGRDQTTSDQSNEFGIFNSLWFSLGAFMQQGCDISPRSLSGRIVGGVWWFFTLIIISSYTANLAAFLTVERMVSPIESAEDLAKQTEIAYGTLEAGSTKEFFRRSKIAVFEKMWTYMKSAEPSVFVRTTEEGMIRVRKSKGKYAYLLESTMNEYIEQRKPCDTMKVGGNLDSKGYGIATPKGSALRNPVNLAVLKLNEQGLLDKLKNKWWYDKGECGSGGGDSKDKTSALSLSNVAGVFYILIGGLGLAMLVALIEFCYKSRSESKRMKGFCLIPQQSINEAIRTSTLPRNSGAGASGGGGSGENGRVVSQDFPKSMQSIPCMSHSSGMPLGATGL

This test deals with glucocorticoid receptor (rat (endogenous in Wistar rat amygdala)) (UniProt P06536). Description: co-IP; anti-GR polyclonal antibody immobilised on AminoLink Plus resin (Pierce Co-IP kit); 80 ug total amygdala protein lysate of each group (Con, MS, M+P+S, MS+S-M, each with or without L. paracasei HT6 supplementation), overnight at 4°C; eluate immunoblotted with anti-GluR1. In general terms: A western blot detects proteins with antibodies after separation by electrophoresis.

Results are given in words; binding and its absence hold for the method and conditions named. In cells and extracts the contact can be indirect. Some results given as binding are weak or reduced against the parent protein; the word gives no strength.

Turning to “glutamate receptor GluR1 (AMPA receptor subunit) (from UniProt P19490 19-907)”, the binding entry is “binds”.
